Values quoted from earlier work, collected in paper PMC11885506, “Evaluation of a non-animal toolbox informed by adverse outcome pathways for human inhalation safety” (Frontiers in Toxicology, 2025).
Counter-ions that a name gives are not always drawn.

Details: human, therapeutic dose, single dose of 400 mg via oral route; ref Andreasen et al. (1981); cited from earlier work

CCCCc1oc2ccccc2c1C(=O)c1cc(I)c(OCCN(CC)CC)c(I)c1 [Amiodarone, Amiodarone hydrochloride]
Plasma conc: Plasma conc: 2 μM
